Results are given in words; binding and its absence hold for the method and conditions named. Binding seen in cells or lysates may run through a third protein. A result given as binding can be weak or reduced; the word gives no strength. Where a sequence is shown, tags or fusion partners need not be part of it.
Columns and labels:
[1] = molecular target: FLAG-tagged Vpx 1-90 (C-terminally deleted Vpx) (HIV-2); test: co-IP; HEK293T cells co-transfected with HA-H11 (or mutants) and FLAG-Vpx (or deletion mutants), 20 uM MG132 4 h before harvest; lysis in 50 mM Tris-HCl pH 8.0, 150 mM NaCl, 1 mM EDTA, 1 mM DTT; anti-FLAG M2 or anti-HA affinity gel; western blot
[2] = molecular target: FLAG-tagged Vpx 40-112 (N-terminally deleted Vpx) (HIV-2); test: as above

B1: HA-tagged wild type H11, expressed in HEK293T cells (protein, UniProt Q9UJY1 1-196)
chain: MADGQMPFSCHYPSRLRRDPFRDSPLSSRLLDDGFGMDPFPDDLTASWPDWALPRLSSAWPGTLRSGMVPRGPTATARFGVPAEGRTPPPFPGEPWKVCVNVHSFKPEELMVKTKDGYVEVSGKHEEKQQEGGIVSKNFTKKIQLPAEVDPVTVFASLSPEGLLIIEAPQVPPYSTFGESSFNNELPQDSQEVTCT
B1 was tested. Which binding [1] did it give?
Its binding is “binds”.

What about the binding [2] of the same binder?
Its binding is “binds”.
